This is an account of results in PMC4421817.

Chains of the proteins cited; added tags and fusions are not shown.
UniProt P31153: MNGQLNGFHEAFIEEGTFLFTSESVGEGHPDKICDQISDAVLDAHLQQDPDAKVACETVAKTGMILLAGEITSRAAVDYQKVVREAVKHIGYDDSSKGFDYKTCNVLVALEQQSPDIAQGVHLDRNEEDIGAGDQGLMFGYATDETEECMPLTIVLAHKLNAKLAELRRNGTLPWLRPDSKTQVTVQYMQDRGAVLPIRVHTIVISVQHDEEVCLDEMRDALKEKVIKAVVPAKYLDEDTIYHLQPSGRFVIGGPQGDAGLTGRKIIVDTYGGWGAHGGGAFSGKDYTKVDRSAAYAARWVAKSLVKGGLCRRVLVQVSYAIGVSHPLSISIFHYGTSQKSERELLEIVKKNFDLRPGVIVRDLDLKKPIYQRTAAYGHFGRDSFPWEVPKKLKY
UniProt Q5T4S7: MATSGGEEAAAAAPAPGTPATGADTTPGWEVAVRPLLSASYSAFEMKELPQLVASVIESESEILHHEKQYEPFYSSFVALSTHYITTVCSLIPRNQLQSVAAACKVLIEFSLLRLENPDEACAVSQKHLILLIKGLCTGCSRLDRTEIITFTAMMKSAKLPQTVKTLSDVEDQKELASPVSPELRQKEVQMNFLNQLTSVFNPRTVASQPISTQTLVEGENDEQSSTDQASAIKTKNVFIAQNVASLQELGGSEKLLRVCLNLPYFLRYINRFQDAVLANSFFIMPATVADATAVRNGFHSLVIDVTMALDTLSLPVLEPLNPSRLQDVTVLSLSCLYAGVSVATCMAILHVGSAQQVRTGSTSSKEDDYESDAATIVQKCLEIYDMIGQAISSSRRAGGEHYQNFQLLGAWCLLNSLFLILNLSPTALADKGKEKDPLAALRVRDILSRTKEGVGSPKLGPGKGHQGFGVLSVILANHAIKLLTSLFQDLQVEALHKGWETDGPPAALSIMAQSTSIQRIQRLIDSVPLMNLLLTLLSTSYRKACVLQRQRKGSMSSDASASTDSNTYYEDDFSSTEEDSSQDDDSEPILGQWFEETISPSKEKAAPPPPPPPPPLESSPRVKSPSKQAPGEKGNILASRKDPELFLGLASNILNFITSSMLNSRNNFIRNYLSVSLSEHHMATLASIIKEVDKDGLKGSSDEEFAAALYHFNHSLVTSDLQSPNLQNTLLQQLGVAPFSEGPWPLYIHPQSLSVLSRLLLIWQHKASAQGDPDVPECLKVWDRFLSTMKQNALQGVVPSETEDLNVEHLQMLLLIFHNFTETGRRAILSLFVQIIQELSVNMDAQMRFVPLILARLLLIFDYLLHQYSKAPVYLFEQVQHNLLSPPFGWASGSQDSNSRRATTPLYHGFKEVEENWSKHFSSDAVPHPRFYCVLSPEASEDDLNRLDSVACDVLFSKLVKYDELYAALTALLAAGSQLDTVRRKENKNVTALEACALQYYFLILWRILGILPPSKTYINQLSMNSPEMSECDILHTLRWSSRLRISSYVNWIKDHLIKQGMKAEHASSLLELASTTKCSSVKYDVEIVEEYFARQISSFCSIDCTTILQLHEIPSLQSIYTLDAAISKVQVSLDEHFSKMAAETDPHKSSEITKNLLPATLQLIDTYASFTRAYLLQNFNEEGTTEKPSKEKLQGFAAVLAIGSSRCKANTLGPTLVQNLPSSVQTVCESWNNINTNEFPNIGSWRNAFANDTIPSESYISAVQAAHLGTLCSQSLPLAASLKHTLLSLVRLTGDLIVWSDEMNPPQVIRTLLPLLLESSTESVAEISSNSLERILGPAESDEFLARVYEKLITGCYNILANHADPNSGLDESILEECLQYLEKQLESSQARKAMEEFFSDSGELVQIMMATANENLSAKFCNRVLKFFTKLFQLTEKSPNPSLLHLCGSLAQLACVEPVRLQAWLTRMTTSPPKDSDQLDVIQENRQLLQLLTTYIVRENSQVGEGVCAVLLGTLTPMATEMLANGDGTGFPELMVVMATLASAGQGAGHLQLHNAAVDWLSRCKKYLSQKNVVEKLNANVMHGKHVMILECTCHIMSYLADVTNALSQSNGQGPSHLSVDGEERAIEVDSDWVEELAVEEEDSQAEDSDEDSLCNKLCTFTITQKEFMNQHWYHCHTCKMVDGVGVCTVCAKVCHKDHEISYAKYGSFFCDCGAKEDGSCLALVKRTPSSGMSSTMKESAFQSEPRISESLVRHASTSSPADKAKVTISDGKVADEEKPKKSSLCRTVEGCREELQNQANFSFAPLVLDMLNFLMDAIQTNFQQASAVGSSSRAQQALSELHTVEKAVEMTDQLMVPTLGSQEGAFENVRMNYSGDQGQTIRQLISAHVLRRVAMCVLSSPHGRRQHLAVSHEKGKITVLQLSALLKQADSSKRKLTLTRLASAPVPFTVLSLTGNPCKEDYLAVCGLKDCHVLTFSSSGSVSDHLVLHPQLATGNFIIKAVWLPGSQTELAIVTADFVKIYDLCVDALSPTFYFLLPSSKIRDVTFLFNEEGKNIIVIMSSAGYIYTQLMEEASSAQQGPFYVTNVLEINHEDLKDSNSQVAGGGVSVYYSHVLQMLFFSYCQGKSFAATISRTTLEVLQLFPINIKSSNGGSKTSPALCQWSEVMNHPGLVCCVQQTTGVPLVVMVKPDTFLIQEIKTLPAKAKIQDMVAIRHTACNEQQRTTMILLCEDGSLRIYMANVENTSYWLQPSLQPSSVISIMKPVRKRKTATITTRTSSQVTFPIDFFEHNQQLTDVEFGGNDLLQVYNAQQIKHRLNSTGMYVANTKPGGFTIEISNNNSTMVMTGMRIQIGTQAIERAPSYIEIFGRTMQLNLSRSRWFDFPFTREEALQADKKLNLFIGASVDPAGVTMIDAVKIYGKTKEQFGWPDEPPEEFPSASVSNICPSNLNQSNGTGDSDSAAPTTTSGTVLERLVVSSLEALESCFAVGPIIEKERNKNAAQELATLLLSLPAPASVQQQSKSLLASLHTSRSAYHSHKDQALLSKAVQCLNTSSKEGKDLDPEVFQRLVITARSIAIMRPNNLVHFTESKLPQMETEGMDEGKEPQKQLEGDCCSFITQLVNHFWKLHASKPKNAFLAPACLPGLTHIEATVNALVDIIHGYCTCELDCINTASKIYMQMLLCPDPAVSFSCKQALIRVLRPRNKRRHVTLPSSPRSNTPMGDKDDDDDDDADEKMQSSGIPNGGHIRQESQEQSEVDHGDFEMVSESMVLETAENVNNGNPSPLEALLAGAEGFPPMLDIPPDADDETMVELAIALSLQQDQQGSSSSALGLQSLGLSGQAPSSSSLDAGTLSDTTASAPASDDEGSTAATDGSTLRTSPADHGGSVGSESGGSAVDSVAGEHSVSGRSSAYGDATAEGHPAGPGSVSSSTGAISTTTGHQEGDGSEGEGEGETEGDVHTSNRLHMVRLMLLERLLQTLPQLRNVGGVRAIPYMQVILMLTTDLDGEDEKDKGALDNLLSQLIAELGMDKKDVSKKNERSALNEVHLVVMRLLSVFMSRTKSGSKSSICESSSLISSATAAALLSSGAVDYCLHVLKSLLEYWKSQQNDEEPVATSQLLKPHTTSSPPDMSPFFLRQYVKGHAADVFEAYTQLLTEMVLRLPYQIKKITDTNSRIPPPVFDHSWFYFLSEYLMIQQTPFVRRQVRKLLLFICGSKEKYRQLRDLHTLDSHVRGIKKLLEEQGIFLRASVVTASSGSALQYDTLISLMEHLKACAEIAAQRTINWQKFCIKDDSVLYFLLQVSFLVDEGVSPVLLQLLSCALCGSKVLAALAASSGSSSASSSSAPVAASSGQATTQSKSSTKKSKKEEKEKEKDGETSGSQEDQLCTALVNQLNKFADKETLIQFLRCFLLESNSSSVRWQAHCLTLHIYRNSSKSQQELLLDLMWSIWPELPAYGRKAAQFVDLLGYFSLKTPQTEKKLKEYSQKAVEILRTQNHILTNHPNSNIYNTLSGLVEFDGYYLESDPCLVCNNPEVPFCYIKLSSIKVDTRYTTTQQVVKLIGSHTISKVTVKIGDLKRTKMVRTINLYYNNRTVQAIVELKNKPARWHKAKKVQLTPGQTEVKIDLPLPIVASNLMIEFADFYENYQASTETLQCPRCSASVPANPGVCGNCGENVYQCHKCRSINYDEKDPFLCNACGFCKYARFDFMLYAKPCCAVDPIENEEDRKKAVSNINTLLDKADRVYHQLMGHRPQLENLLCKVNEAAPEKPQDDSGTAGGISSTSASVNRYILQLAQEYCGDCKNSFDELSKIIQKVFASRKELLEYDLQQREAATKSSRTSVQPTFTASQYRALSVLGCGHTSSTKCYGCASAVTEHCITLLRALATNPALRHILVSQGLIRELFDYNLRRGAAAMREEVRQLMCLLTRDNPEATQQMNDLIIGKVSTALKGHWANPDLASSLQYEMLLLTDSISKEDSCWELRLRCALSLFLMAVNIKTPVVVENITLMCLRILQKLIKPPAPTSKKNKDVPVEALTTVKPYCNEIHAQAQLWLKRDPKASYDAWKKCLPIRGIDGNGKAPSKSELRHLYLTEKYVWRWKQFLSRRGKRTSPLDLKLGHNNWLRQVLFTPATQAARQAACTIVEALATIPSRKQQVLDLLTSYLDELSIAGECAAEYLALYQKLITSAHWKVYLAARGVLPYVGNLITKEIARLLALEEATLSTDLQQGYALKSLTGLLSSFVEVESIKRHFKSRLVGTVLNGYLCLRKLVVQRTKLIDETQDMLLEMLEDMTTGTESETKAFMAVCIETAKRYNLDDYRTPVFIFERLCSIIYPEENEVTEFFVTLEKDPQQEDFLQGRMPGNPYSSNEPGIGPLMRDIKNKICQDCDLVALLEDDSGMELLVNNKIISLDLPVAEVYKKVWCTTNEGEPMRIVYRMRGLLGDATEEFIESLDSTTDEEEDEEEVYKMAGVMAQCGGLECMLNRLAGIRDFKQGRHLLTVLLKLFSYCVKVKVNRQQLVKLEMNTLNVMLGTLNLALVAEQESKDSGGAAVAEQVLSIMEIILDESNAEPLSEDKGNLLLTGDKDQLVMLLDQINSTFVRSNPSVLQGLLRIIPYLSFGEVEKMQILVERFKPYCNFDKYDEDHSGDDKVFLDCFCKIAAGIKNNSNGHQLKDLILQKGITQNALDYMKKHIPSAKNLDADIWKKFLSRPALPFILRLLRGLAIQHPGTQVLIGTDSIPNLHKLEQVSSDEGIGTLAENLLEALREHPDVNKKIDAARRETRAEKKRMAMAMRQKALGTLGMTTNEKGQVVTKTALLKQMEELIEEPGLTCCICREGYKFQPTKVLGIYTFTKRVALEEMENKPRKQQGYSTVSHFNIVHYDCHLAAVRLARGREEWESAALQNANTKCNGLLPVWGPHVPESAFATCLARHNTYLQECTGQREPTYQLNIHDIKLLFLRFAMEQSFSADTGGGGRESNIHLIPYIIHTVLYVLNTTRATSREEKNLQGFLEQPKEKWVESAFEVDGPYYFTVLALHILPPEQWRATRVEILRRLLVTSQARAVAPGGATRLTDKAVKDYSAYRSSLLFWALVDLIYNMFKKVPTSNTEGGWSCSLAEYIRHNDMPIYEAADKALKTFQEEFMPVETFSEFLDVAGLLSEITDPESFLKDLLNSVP

The target in this experiment is streptavidin-binding protein and flag-tagged MAT IIα (methionine adenosyltransferase IIα) (human) (UniProt P31153). The experiment is described as follows: affinity purification with mass spectrometry; tandem affinity purification of streptavidin-binding protein and flag-tagged MAT IIα from a HEK293-derived stable cell line cultured upon folate deprivation; partners identified by MS.

Results are given in words; binding and its absence hold for the method and conditions named. Binding seen in cells or lysates may run through a third protein. Here binding means that the protein was enriched with, or labelled near, the bait; the list need not be complete.

For “UBR4 (ubiquitin protein ligase E3 component n-recognin 4) (from UniProt Q5T4S7 1-5183) (enzyme)”, the binding result was “binds”.
